# Measurements published in the supplement of paper PMC12819154, “High-throughput peptide-centric local stability assay extends protein–ligand identification to membrane proteins, tissues and bacteria” (Nature Structural & Molecular Biology, 2025).
# Sequences of proteins named here, by UniProt entry; tags and fusion partners are left off. A change or cut given only in a name is not applied to a line headed by its entry.
# UniProt Q9CQ65: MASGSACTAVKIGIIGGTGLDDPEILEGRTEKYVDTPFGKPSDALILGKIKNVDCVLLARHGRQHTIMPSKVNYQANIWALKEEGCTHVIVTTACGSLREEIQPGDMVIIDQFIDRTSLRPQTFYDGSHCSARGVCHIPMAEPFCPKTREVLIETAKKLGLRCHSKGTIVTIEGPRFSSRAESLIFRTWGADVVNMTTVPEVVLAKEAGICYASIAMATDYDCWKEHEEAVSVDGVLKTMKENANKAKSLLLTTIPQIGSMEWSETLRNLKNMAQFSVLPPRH
# UniProt Q99JT9: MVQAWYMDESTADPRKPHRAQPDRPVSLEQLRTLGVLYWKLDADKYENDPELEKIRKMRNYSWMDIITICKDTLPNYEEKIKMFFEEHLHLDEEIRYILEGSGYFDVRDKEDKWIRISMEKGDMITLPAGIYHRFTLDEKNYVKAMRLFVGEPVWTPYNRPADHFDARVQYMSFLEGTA
# UniProt Q99JW2: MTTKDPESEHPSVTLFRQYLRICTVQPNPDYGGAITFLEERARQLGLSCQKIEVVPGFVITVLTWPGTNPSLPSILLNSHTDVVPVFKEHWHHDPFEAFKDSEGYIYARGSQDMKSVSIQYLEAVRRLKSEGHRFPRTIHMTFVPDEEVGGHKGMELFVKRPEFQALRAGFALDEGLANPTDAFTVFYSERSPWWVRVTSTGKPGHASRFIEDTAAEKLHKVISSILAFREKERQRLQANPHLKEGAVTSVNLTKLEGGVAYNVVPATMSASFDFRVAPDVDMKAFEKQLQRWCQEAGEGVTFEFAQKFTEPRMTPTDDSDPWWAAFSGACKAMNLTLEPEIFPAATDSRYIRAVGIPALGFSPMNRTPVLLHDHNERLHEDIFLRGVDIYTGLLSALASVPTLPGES
# UniProt Q9CQZ6: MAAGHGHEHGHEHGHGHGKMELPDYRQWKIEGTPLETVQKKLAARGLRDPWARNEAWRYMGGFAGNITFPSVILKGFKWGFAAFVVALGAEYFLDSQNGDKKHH
# UniProt Q9CWK3: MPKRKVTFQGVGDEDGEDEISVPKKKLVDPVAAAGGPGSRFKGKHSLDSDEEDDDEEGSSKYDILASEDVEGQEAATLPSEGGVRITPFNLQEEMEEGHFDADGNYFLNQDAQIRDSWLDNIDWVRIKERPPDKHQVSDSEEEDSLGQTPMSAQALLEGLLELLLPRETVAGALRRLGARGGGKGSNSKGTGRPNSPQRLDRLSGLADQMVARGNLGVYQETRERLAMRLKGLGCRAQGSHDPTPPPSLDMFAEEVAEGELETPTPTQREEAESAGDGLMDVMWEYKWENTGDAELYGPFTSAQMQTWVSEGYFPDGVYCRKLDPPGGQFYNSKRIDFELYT
# UniProt Q9CWY9: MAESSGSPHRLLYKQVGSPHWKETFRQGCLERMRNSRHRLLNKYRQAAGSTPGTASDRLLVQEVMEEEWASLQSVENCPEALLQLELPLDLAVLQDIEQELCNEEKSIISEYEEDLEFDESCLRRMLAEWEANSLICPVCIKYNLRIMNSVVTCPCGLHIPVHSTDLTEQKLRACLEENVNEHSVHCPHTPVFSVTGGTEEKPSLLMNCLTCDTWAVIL
# UniProt Q9CQ54: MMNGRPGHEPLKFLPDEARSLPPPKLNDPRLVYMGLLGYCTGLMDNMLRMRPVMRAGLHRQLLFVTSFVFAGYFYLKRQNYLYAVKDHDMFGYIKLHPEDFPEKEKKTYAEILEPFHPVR
# UniProt Q99KE1: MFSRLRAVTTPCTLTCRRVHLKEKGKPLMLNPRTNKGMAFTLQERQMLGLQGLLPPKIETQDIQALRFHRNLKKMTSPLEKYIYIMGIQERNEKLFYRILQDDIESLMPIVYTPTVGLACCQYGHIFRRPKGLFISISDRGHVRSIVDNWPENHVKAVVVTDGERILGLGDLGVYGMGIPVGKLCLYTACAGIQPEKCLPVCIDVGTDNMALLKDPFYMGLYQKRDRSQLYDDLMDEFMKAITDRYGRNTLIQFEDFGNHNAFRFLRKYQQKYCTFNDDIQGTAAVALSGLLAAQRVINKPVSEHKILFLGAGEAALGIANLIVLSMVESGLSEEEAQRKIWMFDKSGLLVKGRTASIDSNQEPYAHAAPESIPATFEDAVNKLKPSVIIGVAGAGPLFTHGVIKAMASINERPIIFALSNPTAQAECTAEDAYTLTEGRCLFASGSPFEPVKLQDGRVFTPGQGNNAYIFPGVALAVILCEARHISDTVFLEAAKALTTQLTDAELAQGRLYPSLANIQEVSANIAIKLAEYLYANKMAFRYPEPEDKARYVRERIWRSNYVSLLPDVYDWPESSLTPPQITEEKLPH
# UniProt Q99LB7: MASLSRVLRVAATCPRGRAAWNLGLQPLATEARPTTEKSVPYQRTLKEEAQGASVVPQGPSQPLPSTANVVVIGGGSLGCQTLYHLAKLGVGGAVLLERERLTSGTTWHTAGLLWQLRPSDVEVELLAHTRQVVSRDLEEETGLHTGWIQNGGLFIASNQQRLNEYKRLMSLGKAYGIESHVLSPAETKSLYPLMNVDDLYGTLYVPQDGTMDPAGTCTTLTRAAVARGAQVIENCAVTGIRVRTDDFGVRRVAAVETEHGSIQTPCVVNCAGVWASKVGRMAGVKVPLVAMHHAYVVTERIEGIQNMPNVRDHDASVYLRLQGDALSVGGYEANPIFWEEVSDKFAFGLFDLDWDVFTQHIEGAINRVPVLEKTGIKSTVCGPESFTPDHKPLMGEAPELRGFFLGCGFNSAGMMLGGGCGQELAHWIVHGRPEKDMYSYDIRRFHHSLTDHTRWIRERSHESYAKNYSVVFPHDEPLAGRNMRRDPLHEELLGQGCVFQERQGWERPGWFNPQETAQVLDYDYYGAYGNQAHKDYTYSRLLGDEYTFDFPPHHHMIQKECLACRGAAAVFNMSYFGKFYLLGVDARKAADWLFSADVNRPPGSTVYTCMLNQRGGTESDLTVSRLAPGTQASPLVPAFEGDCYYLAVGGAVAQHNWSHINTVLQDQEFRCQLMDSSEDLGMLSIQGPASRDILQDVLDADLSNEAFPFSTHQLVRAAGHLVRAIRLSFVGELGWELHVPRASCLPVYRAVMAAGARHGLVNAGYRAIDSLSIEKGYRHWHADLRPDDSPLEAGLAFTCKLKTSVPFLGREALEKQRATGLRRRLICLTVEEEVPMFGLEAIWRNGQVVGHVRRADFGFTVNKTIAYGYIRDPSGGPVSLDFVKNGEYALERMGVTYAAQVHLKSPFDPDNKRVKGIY
# UniProt Q9CWK8: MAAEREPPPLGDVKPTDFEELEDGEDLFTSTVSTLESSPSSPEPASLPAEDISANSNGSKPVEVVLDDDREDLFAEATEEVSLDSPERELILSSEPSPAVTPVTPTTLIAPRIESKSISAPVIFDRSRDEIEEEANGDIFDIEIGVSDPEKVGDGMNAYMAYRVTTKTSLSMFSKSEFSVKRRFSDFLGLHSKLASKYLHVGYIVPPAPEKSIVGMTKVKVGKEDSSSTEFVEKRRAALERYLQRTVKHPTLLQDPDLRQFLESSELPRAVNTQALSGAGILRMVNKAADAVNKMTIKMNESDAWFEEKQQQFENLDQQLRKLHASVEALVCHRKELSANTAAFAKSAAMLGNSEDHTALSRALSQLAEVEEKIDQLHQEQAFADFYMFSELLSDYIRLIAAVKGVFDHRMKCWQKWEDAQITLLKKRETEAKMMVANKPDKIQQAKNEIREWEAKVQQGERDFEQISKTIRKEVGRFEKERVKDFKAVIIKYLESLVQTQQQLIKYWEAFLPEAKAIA
# UniProt Q99MW1: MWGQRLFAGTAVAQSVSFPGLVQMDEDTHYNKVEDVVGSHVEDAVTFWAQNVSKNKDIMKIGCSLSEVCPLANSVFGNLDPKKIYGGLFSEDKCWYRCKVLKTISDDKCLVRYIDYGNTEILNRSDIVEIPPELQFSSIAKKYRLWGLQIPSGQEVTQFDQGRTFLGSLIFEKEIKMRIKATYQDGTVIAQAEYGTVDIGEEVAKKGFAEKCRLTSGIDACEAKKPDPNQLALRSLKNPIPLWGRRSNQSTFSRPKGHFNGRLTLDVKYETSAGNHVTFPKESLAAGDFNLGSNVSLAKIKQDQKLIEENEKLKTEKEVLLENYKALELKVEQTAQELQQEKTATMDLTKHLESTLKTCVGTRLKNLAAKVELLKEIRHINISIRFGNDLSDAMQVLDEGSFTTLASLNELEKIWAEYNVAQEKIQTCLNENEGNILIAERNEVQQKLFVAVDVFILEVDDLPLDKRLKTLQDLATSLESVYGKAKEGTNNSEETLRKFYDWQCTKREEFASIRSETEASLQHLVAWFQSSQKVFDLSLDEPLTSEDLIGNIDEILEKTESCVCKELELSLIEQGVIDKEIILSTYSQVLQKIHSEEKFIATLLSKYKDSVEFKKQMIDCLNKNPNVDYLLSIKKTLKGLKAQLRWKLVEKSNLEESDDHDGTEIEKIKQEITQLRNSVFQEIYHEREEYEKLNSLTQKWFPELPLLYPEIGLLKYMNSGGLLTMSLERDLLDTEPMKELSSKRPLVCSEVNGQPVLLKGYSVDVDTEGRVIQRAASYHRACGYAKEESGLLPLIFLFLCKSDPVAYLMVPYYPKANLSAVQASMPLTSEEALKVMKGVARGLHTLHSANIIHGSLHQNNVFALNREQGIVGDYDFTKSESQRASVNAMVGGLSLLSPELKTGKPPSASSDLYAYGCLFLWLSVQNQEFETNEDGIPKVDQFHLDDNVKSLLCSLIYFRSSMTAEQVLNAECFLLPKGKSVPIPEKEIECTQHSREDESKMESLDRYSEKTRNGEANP
# UniProt Q99PP7: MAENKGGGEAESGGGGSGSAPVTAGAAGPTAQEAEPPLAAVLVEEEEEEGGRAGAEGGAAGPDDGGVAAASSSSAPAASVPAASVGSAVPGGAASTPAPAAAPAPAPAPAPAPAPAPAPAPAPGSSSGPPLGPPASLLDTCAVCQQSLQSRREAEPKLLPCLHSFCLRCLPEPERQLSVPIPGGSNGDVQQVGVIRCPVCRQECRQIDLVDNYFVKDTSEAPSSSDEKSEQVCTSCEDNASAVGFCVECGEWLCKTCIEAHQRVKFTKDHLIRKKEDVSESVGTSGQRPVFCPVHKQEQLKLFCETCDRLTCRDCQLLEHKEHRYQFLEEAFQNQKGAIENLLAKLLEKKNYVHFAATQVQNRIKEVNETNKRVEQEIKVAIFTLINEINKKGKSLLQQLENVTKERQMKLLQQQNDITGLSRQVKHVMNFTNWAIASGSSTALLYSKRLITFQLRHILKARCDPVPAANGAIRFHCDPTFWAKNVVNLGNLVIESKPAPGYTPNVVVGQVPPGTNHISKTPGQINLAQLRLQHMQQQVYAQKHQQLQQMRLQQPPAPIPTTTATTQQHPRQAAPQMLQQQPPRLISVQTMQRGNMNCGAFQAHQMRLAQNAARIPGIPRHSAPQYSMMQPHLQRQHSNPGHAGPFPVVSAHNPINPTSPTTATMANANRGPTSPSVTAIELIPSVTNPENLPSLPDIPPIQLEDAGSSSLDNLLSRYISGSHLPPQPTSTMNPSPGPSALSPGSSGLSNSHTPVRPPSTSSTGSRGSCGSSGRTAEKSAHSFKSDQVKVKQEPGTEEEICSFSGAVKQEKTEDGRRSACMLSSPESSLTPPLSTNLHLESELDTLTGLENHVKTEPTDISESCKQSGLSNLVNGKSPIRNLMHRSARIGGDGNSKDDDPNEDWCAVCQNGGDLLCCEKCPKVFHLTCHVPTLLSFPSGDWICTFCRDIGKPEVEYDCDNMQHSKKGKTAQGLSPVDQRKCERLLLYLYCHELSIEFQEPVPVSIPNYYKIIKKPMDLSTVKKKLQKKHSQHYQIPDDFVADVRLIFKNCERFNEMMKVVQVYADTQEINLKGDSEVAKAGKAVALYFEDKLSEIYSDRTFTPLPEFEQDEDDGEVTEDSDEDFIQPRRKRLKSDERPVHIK
# UniProt Q9CPQ1: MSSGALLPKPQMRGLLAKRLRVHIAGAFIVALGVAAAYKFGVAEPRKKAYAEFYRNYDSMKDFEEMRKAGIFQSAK
# UniProt Q9CPQ8: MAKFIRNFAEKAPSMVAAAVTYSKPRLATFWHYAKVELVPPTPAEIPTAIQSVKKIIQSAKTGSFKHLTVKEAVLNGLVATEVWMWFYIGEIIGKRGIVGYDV
# UniProt Q9CRG1: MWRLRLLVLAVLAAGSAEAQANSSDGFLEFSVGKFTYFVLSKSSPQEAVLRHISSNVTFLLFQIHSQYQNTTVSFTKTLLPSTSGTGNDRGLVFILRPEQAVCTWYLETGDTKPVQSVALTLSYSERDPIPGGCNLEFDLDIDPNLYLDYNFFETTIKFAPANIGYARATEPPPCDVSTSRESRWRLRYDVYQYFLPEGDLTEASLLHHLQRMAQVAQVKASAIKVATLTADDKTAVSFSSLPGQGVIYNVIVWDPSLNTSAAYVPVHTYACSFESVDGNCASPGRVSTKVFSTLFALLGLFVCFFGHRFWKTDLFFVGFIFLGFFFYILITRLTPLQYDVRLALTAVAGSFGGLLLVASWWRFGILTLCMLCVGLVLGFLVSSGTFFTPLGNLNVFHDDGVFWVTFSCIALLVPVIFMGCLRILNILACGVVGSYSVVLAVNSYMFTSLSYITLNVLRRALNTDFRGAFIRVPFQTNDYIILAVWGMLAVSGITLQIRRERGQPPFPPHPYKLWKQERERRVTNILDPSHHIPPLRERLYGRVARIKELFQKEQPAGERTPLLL
# This is one part of the list. Small differences around the control level are noise.
# Compound: CN[C@@H]1C[C@H]2O[C@@](C)([C@@H]1OC)n1c3ccccc3c3c4c(c5c6ccccc6n2c5c31)C(=O)NC4 [staurosporine]
# Assay: log2 fold change of pooled soluble protein (PISA), ligand vs vehicle (log2 ratio); higher = more thermally stabilized
# Details: ligand concentration: 20 uM; assay format: PISA pool 52.9/55.5/58.6 C
row,Target,log2 fold change of pooled soluble protein
1,UniProt Q9CQ65,-0.00365
2,UniProt Q99JT9,0.0824
3,UniProt Q99JW2,0.00624
4,UniProt Q9CQI6,0.0575
5,UniProt Q9CQQ7,-0.121
6,UniProt Q9CQZ6,-0.0397
7,UniProt Q9CWK3,0.0749
8,UniProt Q9CWY9,0.239
9,UniProt Q9CQS8,0.0163
10,UniProt Q9CQ88,0.209
11,UniProt Q99PM3,0.312
12,UniProt Q9CQ54,-0.0503
13,UniProt Q99LR1,-0.0822
14,UniProt Q9CWV6,0.148
15,UniProt Q99KE1,-0.12
16,UniProt Q99LC2,-0.216
17,UniProt Q99KP3,0.0505
18,UniProt Q9CQ62,0.00683

# Not a retest: an excerpt of the list.
row,Target,log2 fold change of pooled soluble protein
16,UniProt Q99LC2,-0.216
17,UniProt Q99KP3,0.0505

# Continuation:

row,Target,log2 fold change of pooled soluble protein
1,UniProt Q9CR68,0.057
2,UniProt Q99LB7,-0.0745
3,UniProt Q99PG0,0.0566
4,UniProt Q99N16,-0.000226
5,UniProt Q9CQV1,-0.0156
6,UniProt Q9CWK8,-0.000395
7,UniProt Q99MW1,0.143
8,UniProt Q9CW07,0.116
9,UniProt Q99PP7,-0.113
10,UniProt Q9CPQ1,-0.252
11,UniProt Q9CXD6,-0.00856
12,UniProt Q9CPQ8,-0.192
13,UniProt Q99JI4,0.266
14,UniProt Q99N91,0.0273
15,UniProt Q99PT1,-0.178
16,UniProt Q9CRG1,0.0932
17,UniProt Q99L04,-0.163
18,UniProt Q99KU6,-0.102
